From publication doi:10.1101/2023.03.22.533738
Results are given in words; binding and its absence hold for the method and conditions named. In cells and extracts the contact can be indirect. Some binding calls cover weakened binding; strength is not graded here. For part of these data: Sequences can lack the tags named with a protein.

Sequences of proteins named here, by UniProt entry; tags and fusion partners are left off.
UniProt Q13164: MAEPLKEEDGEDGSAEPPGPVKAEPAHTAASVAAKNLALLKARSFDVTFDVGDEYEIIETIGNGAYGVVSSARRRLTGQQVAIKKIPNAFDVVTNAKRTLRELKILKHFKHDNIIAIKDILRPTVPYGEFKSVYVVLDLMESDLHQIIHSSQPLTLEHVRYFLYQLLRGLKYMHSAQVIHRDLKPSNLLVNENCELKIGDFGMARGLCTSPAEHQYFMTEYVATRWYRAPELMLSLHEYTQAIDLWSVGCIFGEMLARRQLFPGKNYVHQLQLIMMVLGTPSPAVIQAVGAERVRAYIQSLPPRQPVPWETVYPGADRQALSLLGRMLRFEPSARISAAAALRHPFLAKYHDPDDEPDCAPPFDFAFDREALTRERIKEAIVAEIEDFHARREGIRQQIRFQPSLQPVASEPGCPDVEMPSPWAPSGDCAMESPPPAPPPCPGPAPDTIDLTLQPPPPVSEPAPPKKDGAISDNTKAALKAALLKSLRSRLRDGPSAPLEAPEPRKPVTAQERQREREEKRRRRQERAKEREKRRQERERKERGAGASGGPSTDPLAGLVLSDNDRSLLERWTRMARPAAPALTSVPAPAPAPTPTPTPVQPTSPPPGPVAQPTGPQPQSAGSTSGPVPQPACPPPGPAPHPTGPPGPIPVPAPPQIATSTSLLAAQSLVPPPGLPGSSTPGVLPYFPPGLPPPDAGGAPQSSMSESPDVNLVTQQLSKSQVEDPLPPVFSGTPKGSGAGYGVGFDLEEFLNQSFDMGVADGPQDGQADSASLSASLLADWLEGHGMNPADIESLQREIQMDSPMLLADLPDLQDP
UniProt Q14790: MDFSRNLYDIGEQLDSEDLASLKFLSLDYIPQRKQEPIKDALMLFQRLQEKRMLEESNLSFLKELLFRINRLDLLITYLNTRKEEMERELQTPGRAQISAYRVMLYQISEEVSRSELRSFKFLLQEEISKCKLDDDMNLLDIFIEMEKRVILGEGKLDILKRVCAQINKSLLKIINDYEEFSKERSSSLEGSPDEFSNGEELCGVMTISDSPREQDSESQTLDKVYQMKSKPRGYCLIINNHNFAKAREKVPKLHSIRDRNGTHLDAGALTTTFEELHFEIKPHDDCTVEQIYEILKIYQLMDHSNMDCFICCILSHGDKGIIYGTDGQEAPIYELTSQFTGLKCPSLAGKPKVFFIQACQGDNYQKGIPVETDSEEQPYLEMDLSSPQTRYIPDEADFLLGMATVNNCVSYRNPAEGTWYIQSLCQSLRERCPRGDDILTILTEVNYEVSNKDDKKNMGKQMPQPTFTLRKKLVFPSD

Legend:
Test in all cases: co-IP
[1] = biological target: T1, FLAG-tagged TP53INP2 (human, wild type) (human) (UniProt Q8IXH6)
T1 sequence: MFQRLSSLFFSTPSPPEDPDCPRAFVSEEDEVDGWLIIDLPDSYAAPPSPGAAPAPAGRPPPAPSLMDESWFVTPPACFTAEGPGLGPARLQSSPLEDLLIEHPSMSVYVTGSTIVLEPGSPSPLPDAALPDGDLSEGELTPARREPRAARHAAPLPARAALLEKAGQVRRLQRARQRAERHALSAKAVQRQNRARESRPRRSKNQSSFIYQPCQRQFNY

[2] = biological target: MAP kinase ERK5 (endogenous) (human (endogenous in Ishikawa)) (UniProt Q13164)
[3] = biological target: GST-tagged human ERK5 (WT) (human) (UniProt Q13164)

Molecule: Caspase-8 (from UniProt Q14790 1-479) (enzyme)
- binding [1]: binds

B1: TP53INP2 (endogenous) (protein, UniProt Q8IXH6 1-220)
chain: T1 sequence
- binding [2]: binds

B2: FLAG-tagged TP53INP2 (human, wild type) (protein, UniProt Q8IXH6 1-220)
chain: T1 sequence
- binding [3]: binds
